Assay [1] has as its target bovine carbonic anhydrase II (b-CA II) (Bos taurus, UniProt P00921). Description: Carbonic anhydrase (b-CA II) inhibition assay, p-nitrophenyl acetate hydrolysis. It is filed as biochemical. To be noted: for IC50: read-out: b-CA II IC50 ± SEM, mean of three experiments.
In another assay the target is 15-lipoxygenase (15-LOX) (Glycine max, UniProt P08170). The assay is described as follows: Lipoxygenase (15-LOX) inhibition assay, linoleic acid substrate, absorbance 234 nm. It counts as biochemical.

Amino acid sequences for entries named in this document (tags omitted).
UniProt P00921, whole entry: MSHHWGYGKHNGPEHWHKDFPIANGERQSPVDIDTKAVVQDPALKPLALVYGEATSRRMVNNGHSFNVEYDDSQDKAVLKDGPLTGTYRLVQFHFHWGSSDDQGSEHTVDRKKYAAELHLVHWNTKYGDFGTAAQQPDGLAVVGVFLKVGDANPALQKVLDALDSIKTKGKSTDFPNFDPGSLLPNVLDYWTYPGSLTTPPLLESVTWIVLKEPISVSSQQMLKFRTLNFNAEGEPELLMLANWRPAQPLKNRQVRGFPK
UniProt P08170, whole entry: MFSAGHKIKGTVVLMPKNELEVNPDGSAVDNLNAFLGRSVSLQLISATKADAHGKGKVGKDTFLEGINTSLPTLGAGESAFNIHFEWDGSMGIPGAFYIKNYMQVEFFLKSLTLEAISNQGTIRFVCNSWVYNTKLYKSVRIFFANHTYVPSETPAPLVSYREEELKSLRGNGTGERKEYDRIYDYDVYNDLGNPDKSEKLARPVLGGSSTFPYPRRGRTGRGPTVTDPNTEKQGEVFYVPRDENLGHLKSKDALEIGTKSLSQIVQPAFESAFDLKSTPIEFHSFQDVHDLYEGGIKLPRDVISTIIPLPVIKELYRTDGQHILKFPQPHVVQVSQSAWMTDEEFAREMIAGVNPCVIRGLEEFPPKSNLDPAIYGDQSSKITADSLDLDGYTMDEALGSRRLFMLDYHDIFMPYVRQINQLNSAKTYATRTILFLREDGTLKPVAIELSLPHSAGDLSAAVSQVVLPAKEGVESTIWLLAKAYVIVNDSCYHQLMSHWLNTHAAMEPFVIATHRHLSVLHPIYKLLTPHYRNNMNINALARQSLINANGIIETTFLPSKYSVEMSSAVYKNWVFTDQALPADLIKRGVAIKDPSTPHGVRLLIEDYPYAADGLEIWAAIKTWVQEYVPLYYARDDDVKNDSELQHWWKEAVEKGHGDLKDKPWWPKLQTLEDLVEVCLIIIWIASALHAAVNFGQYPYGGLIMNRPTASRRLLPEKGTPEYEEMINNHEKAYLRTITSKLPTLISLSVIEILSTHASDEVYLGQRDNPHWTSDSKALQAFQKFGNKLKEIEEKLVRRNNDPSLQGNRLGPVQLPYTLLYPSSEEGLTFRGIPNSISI

Structures were worked out from names or drawings and are uncertain.

Consider `NC(=S)N/N=C/c1ccc(Cl)c([N+](=O)[O-])c1`, for which the IC50 in assay [1] was determined as 580 nM; on 15-lipoxygenase (15-LOX) (read-out: 15-LOX IC50 ± SEM, mean of three experiments) it was 540 nM.
As for `NC(=S)N/N=C/c1cccs1`, the IC50 in assay [1] came out at 3710 nM. For the same compound, in assay [1] (vs 3h), the “fold less potent towards CA II compared with compound 3h” value was “≈ 29 fold”. Besides, the 15-LOX inhibition result at 15-lipoxygenase (15-LOX) (final concentration of 100 μM) was “---^b (Compounds showing <50% inhibition)”.

For the origin of these results see publication PMC9785969, “Synthesis, Biological Evaluation, and Molecular Dynamics of Carbothioamides Derivatives as Carbonic Anhydrase II and 15-Lipoxygenase Inhibitors” (Molecules, 2022).
